Measurements as given in PubChem BioAssay AID248 (DTP/NCI, 2004).
The list does not hold the whole screen: it is rich in T/C values a quarter to a half above the control, in often repeated tests (any T/C) and in doses without a T/C. Further doses and runs are listed elsewhere. T/C is the treated group as % of the vehicle group. Some entries give survivors of the animals treated and no T/C: the source holds a T/C of zero for them, seemingly a mark for toxic or unscored doses. Some doses without a T/C left all or most animals alive at the check, yet need not have been tolerated: the source hardly ever lists a survival T/C far under the control, and the zero likely stands for such cases as well. Survivors were counted at the toxicity check, usually on the fifth day, unless a day is given; later deaths do not show. Schedules are NCI's codes, taken here to give the interval after Q, in days (D) or hours (H), and the number of doses after X. Some schedules carry Z or #; the key to these is not given. Some molecules as drawn cover several salts, stereoisomers or complexes of the source; a dose is that of the sample tested. Counts like (3×) count equal records among those shown. Some entries were tested several times; their values stand side by side, smallest first. Where survival is the endpoint, this PubChem deposit counts one and a half times the control or more as active, and values a quarter to a half above the control carry no call in these data; other NCI protocols may use other cut-offs.

Test system: L1210 leukemia ip in BDF1 mice, survival T/C
Assay: NCI In Vivo Anticancer Drug Screen. Data for tumor model L1210 Leukemia (intraperitoneal) in B6D2F1 (BDF1) mice
Settings: T/C endpoint: mean survival time, higher T/C = longer survival
[1] = dose: 200.0 mg/kg/injection, schedule: Q01DX009 (ip), vehicle: Klucel (hydroxypropylcellulose) (HPC)
[2] = dose: 400.0 mg/kg/injection, schedule: Q04DX003 (ip), vehicle: Klucel (hydroxypropylcellulose) (HPC)
[3] = dose: 400.0 mg/kg/injection, schedule: Q01DX009 (ip), vehicle: Klucel (hydroxypropylcellulose) (HPC)
[4] = dose: 200.0 mg/kg/injection, schedule: Q01DX001 (ip), vehicle: saline
[5] = dose: 400.0 mg/kg/injection, schedule: Q04DX003 (ip), vehicle: saline with Tween-80
[6] = dose: 100.0 mg/kg/injection, schedule: Q01DX009 (ip), vehicle: saline
[7] = dose: 400.0 mg/kg/injection, schedule: Q04DX002 (ip), vehicle: Klucel (hydroxypropylcellulose) (HPC)
[8] = dose: 400.0 mg/kg/injection, schedule: Q01DX009 (ip), vehicle: saline with Tween-80

C=CCCN1CCCC1
survivor count (dose: 6.0 mg/kg/injection, schedule: Q01DX009 (ip), vehicle: saline with Tween-80): 6 of 6 | T/C (dose: 12.5 mg/kg/injection, schedule: Q04DX003 (ip), vehicle: saline with Tween-80): 130 % of control | survivor count (dose: 50.0 mg/kg/injection, schedule: Q04DX003 (ip), vehicle: saline with Tween-80): 3 of 6 | survivor count (dose: 100.0 mg/kg/injection, schedule: Q04DX003 (ip), vehicle: saline with Tween-80): 0 of 6 | survivor count (dose: 200.0 mg/kg/injection, schedule: Q04DX003 (ip), vehicle: saline with Tween-80): 0 of 6

CC[n+]1c(C)sc2cc3c(cc21)OCO3
survivor count [1]: 0 of 6 | survivor count (dose: 200.0 mg/kg/injection, schedule: Q04DX003 (ip), vehicle: Klucel (hydroxypropylcellulose) (HPC)): 2 of 6 | survivor count [2]: 0 of 6

CCc1ccccc1NC(=O)N1CCCCC1C (stereo not drawn)
survivor count [3]: 4 of 6

O=C(O)C(O)C(O)C(=O)O.O=C(O)C(O)C(O)C(=O)O.[O]=[V].[O]=[V] (stereo not drawn)
survivor count (dose: 100.0 mg/kg/injection, schedule: Q04DX003 (ip), vehicle: saline sonified): 3 of 6 and 6 of 6 | survivor count (dose: 200.0 mg/kg/injection, schedule: Q04DX003 (ip), vehicle: saline sonified): 0 of 6 (3×) | survivor count (dose: 400.0 mg/kg/injection, schedule: Q04DX003 (ip), vehicle: saline sonified): 0 of 6 (3×)

CC(C)=NNCCO
survivor count (dose: 100.0 mg/kg/injection, schedule: Q01DX001 (ip), vehicle: saline): 1 of 6

CN=C(c1ccc(NC(=O)c2cccc(C(=O)Nc3ccc(C(=NC)N(C)C4CCCCC4)cc3)c2)cc1)N(C)C1CCCCC1
survivor count (dose: 15.0 mg/kg/injection, schedule: Q01DX Z (ip), vehicle: saline): 0 of 6 | survivor count (dose: 30.0 mg/kg/injection, schedule: Q01DX Z (ip), vehicle: saline): 0 of 6 | survivor count (dose: 60.0 mg/kg/injection, schedule: Q01DX Z (ip), vehicle: saline): 0 of 6 | survivor count (dose: 120.0 mg/kg/injection, schedule: Q01DX Z (ip), vehicle: saline): 0 of 6

C/C(=C\Cl)COC(C)(C)C
survivor count (dose: 400.0 mg/kg/injection, schedule: Q01DX001 (ip), vehicle: saline with Tween-80): 0 of 6

c1ccc([As+](c2ccccc2)(c2ccccc2)c2ccccc2)cc1
T/C (dose: 1.25 mg/kg/injection, schedule: Q01DX Z (ip), vehicle: methylcellulose (MC)): 131 % of control | T/C (dose: 2.5 mg/kg/injection, schedule: Q01DX Z (ip), vehicle: carboxymethylcellulose (CMC)): 125 % of control | T/C (dose: 3.75 mg/kg/injection, schedule: Q01DX Z (ip), vehicle: carboxymethylcellulose (CMC)): 127 % of control | survivor count (dose: 5.0 mg/kg/injection, schedule: Q01DX Z (ip), vehicle: methylcellulose (MC)): 3 of 6 | survivor count (dose: 10.0 mg/kg/injection, schedule: Q01DX001 (ip), vehicle: carboxymethylcellulose (CMC)): 3 of 6 | survivor count (dose: 10.0 mg/kg/injection, schedule: Q01DX Z (ip), vehicle: methylcellulose (MC)): 3 of 6 | survivor count (dose: 20.0 mg/kg/injection, schedule: Q01DX001 (ip), vehicle: carboxymethylcellulose (CMC)): 5 of 6 | survivor count (dose: 20.0 mg/kg/injection, schedule: Q01DX001 (ip), vehicle: saline): 2 of 6 | survivor count (dose: 40.0 mg/kg/injection, schedule: Q01DX001 (ip), vehicle: carboxymethylcellulose (CMC)): 2 of 6 | survivor count (dose: 40.0 mg/kg/injection, schedule: Q01DX001 (ip), vehicle: saline): 3 of 6 | survivor count (dose: 80.0 mg/kg/injection, schedule: Q01DX001 (ip), vehicle: saline): 0 of 6

CC(C)n1cnc2c(=S)nc[nH]c21
T/C (dose: 29.0 mg/kg/injection, schedule: Q01DX Z (oral), vehicle: carboxymethylcellulose (CMC)): 128 % of control | survivor count (dose: 315.0 mg/kg/injection, schedule: Q01DX Z (ip), vehicle: carboxymethylcellulose (CMC)): 4 of 6

CCN1CC2c3cc(OC)c(OC)cc3CC(c3ccccc3)C2C1 (stereo not drawn)
survivor count (dose: 50.0 mg/kg/injection, schedule: Q01DX009 (ip), vehicle: saline with Tween-80): 3 of 6

CCCCCCc1cc(CN(C2CCCCC2)C2CCCCC2)c(O)cc1O
survivor count [4]: 6 of 6

CCCCCCCCCCNC(C1=C(O)c2ccccc2C(=O)C1=O)c1ccccc1 (stereo not drawn)
survivor count (dose: 50.0 mg/kg/injection, schedule: Q01DX001 (ip), vehicle: saline with Tween-80): 3 of 3 | survivor count (dose: 100.0 mg/kg/injection, schedule: Q01DX001 (ip), vehicle: saline with Tween-80): 3 of 3 | survivor count (dose: 200.0 mg/kg/injection, schedule: Q01DX001 (ip), vehicle: saline with Tween-80): 3 of 3

CCCCCCP(=O)(CCCCCC)C1CCCC1
survivor count [5]: 4 of 6

C=CC#N
survivor count [6]: 6 of 6 | survivor count (dose: 100.0 mg/kg/injection, schedule: Q04DX003 (ip), vehicle: saline): 6 of 6 | survivor count (dose: 200.0 mg/kg/injection, schedule: Q01DX009 (ip), vehicle: saline): 6 of 6 | survivor count (dose: 200.0 mg/kg/injection, schedule: Q04DX003 (ip), vehicle: saline): 1 of 6 | survivor count (dose: 400.0 mg/kg/injection, schedule: Q01DX009 (ip), vehicle: saline): 6 of 6 | survivor count (dose: 800.0 mg/kg/injection, schedule: Q01DX009 (ip), vehicle: saline): 3 of 6

CCC1COC(=O)N1 (stereo not drawn)
survivor count [6]: 1 of 6 | survivor count [4]: 0 of 6

O=c1c2ccccc2oc2ccccc12
survivor count [5]: 4 of 6

CCC1(C)N=C(N)N=C(N)N1c1ccc(Cl)c(Cl)c1 (stereo not drawn)
survivor count (dose: 300.0 mg/kg/injection, schedule: Q01DX001 (ip), vehicle: saline): 2 of 6

CCC(=O)C1(c2ccccc2)CCNCC1
survivor count (dose: 100.0 mg/kg/injection, schedule: Q04DX002 (ip), vehicle: Klucel (hydroxypropylcellulose) (HPC)): 3 of 3 | survivor count [1]: 2 of 3 | survivor count [3]: 0 of 3 | survivor count [7]: 1 of 3

Nc1nnnc2c1ncn2C1OC(CO)C(O)C1O (stereo not drawn)
T/C (dose: 8.0 mg/kg/injection, schedule: Q01DX009 (ip), vehicle: saline): 125 % of control | T/C (dose: 23.0 mg/kg/injection, schedule: Q01DX009 (ip), vehicle: saline): 129 % of control | T/C (dose: 150.0 mg/kg/injection, schedule: Q01DX001 (ip), vehicle: saline): 128 % of control

CNC(C)Cc1ccccc1 (stereo not drawn)
survivor count (dose: 60.0 mg/kg/injection, schedule: Q01DX009 (ip), vehicle: saline): 1 of 6 | survivor count (dose: 120.0 mg/kg/injection, schedule: Q01DX009 (ip), vehicle: saline): 0 of 6 (2×) | survivor count (dose: 120.0 mg/kg/injection, schedule: Q04DX003 (ip), vehicle: saline): 1 of 6 | survivor count (dose: 240.0 mg/kg/injection, schedule: Q01DX009 (ip), vehicle: saline): 0 of 6 (2×) | survivor count (dose: 240.0 mg/kg/injection, schedule: Q04DX003 (ip), vehicle: saline): 0 of 6

O=C(Nc1ccc(Nc2ccccc2)cc1)Nc1cccc(F)c1
survivor count [8]: 6 of 6

CC(=O)Oc1ccc(N(CCCl)CCCl)cc1OC(C)=O
T/C (dose: 75.0 mg/kg/injection, schedule: Q01DX001 (ip), vehicle: other): 136 % of control | survivor count (dose: 300.0 mg/kg/injection, schedule: Q01DX001 (ip), vehicle: other): 3 of 6

CC1(c2cccs2)C(=O)NC(=O)N1C(=O)CCl (stereo not drawn)
survivor count [8]: 0 of 6 | survivor count [5]: 4 of 6

C[C@@H]1CC[C@@]2(NC1)O[C@H]1C[C@H]3[C@@H]4CC=C5C[C@@H](O)CC[C@]5(C)[C@H]4CC[C@]3(C)[C@H]1[C@@H]2C
survivor count [2]: 6 of 6

CCCCn1nnc2c(NCCc3cnc[nH]3)nc(N)nc21
survivor count (dose: 200.0 mg/kg/injection, schedule: Q01DX009 (ip), vehicle: saline with Tween-80): 3 of 6 | survivor count [5]: 5 of 6

Cc1c(C(=O)O)nnn1-c1ccc(Cl)cc1Cl
survivor count [7]: 2 of 3
